Results as given in patent US20230250168A1 (MABWELL SHANGHAI BIOSCIENCE, published 2023).
These are yes or no findings as the source states them, for the method shown. Some results given as binding are weak or reduced against the parent protein; the word gives no strength.

By UniProt entry, the sequences of proteins in these tests, tags left out. Where a name states a change or a piece, a line headed by the entry shows the natural chain unless it says otherwise. Chains listed by the source or under a name are the forms on record and can include a tag or linker.
human CLDN18.2 expressed on cell surfaces (P56856, form named): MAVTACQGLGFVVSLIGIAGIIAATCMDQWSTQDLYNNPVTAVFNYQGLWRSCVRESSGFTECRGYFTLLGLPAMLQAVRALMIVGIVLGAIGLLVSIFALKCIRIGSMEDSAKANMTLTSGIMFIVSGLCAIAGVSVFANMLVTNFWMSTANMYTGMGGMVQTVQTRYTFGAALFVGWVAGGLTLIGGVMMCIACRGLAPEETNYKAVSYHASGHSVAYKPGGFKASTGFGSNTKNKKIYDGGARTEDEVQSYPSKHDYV

Key:
[1] = target: human CLDN18.2 expressed on cell surfaces (human) (UniProt P56856); experiment: flow cytometry on HEK293 cells transfected with human CLDN18.2, MFI; antibody concentration not shown
[2] = target: human CLDN18.2 expressed on cell surfaces (human) (UniProt P56856); experiment: flow cytometry on transfected HEK293 cells

binding [1]: binds
binding [2]: binds
B1: 16K15-hz22 (antibody, human IgG1, V domains shown)
VH: EVQLVESGGGLVQPGGSLRLSCAGSGITLSTYAMSWVRQAPGKGLEWVSSIISGGITYYLDSVKGRFTISRDNAKNTLYLQMSSLRAEDTAVYYCARKYHGNALDYWGQGTLVTVSS
VL: DIVMTQSPDSLAVSLGERATINCKSSQSLLSSGNQRNYLTWYQQKPGQPPKKLIYWASTRESGVPDRFSGSGSGTDFTLTISSLQAEDLAVYYCQNNYFYPLTFGQGTKLEIK
notes: Humanized; also called 16K15-hz22 IgG; 16K15-22 IgG
